# Some of the results follow.
# Amino acid sequences for entries named in this document (tags omitted).
# UniProt Q0JBA9, entry or part of it: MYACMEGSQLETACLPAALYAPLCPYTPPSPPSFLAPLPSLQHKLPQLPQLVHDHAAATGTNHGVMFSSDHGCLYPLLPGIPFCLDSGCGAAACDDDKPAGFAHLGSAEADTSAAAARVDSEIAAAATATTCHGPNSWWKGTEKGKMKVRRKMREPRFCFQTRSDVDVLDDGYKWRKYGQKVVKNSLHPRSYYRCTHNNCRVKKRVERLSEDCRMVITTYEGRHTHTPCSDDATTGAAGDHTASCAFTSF
# Biological target: OsWRKY34 (Oryza sativa, UniProt Q0JBA9 1-250)
# Test: protein-binding microarray (RPBM); PBS, 2% BSA, 51.3 ng/ul salmon testes DNA, 50 uM zinc acetate, 200 nM TF, 25 C, 1 h; high values mean tight binding
# Settings: protein: recombinant; tags: N-terminal polyhistidine and DsRed monomer fusion (pET32a); label: CyDye5-dUTP incorporated in the synthesized complementary strand; 3' TTTTT single-stranded linker to array surface; dsDNA, one strand shown
# In short: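 In PBS with 2% BSA, salmon testes DNA and 50 µM zinc acetate, 200 nM protein was incubated on a custom Agilent array at 25 °C for 1 h and then washed off. The array had been made double-stranded by primer extension with Cy5-dUTP and blocked with 2% BSA. The proteins were transcription factors fused N-terminally to polyhistidine and DsRed, expressed in E. coli BL21-CodonPlus and purified on Ni–NTA. The binding signal is per-feature fluorescence intensity (arbitrary units) from an Axon 4000B scanner.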
row,Sequence,binding signal
1,CTTTCCATTCTCTGGAAGCAAATTGCGCTCTCTGGATCTTCGGAGTCACCTAGTGCAG,9250 fluorescence intensity (a.u.)
2,CATCGCCGCCGCCGCCGGTATCTCGCTGACCTTTCCTCTCCGGAGTCACCTAGTGCAG,8400 fluorescence intensity (a.u.)
3,TCATTTCCCACCATATTTCTCATCTCGTGGTTGGGGATCCCGGAGTCACCTAGTGCAG,8780 fluorescence intensity (a.u.)
4,ATTATTTTTTATTTTTTAATAAGCCGTTTTTGTTCTACTACGGAGTCACCTAGTGCAG,9430 fluorescence intensity (a.u.)
5,CTGGTCAGAGTCCCCAACCAAAAGCATTTCTCCTGCCTTCCGGAGTCACCTAGTGCAG,8660 fluorescence intensity (a.u.)
6,CATAACGTTTCCGCTCCTGATCGATCGGCTTCACGCACGCCGGAGTCACCTAGTGCAG,8730 fluorescence intensity (a.u.)
7,GGCGGCGGCGGCGGCGGTGGTGGTGAGGAGGAGGAGGAGGCGGAGTCACCTAGTGCAG,10700 fluorescence intensity (a.u.)
8,CATCATGAACATTGGTTGGATTCCTTGAGAGGTCAGATTCCGGAGTCACCTAGTGCAG,8470 fluorescence intensity (a.u.)
9,AAAACTCTGCTATATATACGTACTCGCCATAGTCAGCGCGCGGAGTCACCTAGTGCAG,8420 fluorescence intensity (a.u.)
10,ACGAATCCAACGCCCTTTGTCATCCACCTCGTGTCGCTCGCGGAGTCACCTAGTGCAG,8620 fluorescence intensity (a.u.)
11,TTGGACAAAATCCATCCGAACTTTGACATTTGCATTTTGGCGGAGTCACCTAGTGCAG,8090 fluorescence intensity (a.u.)
12,CCGGCACCGATTCCTGCCTCCGCCTTTGAATTCCGCCGCGCGGAGTCACCTAGTGCAG,8620 fluorescence intensity (a.u.)
13,CTGCTTTTTTTGATCGATCGGTGAGTTTTCTGAAACACCTCGGAGTCACCTAGTGCAG,13400 fluorescence intensity (a.u.)
14,TTCTGCCTCTCGTTGCCTTCATACTATTTGCTATGTCTTCCGGAGTCACCTAGTGCAG,9510 fluorescence intensity (a.u.)
15,GTGCTGCTTGTTGAAACGTTGAGTAGTTGTCGCTGCCATTCGGAGTCACCTAGTGCAG,8860 fluorescence intensity (a.u.)
16,CAGATCCTTTGTCCGAGCTATCTTCCGAAAAGCTTTTAAACGGAGTCACCTAGTGCAG,10100 fluorescence intensity (a.u.)
17,AGTTATAGGGTAGATGTGTGTCGTGCATGCTGCATACTACCGGAGTCACCTAGTGCAG,9040 fluorescence intensity (a.u.)
18,ATTAAGGGCCTGTTCACTTTGATGCCATTTTCAACCATACCGGAGTCACCTAGTGCAG,9710 fluorescence intensity (a.u.)
19,TAGTGTGTTTCTTGCCGGCGTCTCCATCCACTCTCCTGACCGGAGTCACCTAGTGCAG,9580 fluorescence intensity (a.u.)
20,TTTATCCTTCGACTGTGTTTATCCTTTTTCTGATGTGTTTCGGAGTCACCTAGTGCAG,10700 fluorescence intensity (a.u.)
21,TACACGGCTACACGCTCGGCTCCTGACCCGGCGCCGGCGACGGAGTCACCTAGTGCAG,8630 fluorescence intensity (a.u.)

# Reformatted: entries from further up
row	Sequence	binding signal
1	CTTTCCATTCTCTGGAAGCAAATTGCGCTCTCTGGATCTTCGGAGTCACCTAGTGCAG	9250 fluorescence intensity (a.u.)
18	ATTAAGGGCCTGTTCACTTTGATGCCATTTTCAACCATACCGGAGTCACCTAGTGCAG	9710 fluorescence intensity (a.u.)

# More records

row,Sequence,binding signal
1,TCCCGTCTCGTCTCCGCTCCTTGCGCCTGCGCCGATCTCCCGGAGTCACCTAGTGCAG,8930 fluorescence intensity (a.u.)
2,AATACTACTCCCTCTATTTCAGGTTATAAGACGTTTTGACCGGAGTCACCTAGTGCAG,9310 fluorescence intensity (a.u.)
3,ACTGCCTCTCCGTTGAATAATTCCTGTAACTGGCATAACACGGAGTCACCTAGTGCAG,8270 fluorescence intensity (a.u.)
4,GTACGTTACTAATCGCAGTTATACTCGCAGCTCATACATTCGGAGTCACCTAGTGCAG,9920 fluorescence intensity (a.u.)
5,TATCACATTTGCGTTTTGCATTTTTTGCACTGCATTTCATCGGAGTCACCTAGTGCAG,11000 fluorescence intensity (a.u.)
6,TTCTTGTATTCTGTTGTGCCTTTTTGGGCTTGCAATTAAGCGGAGTCACCTAGTGCAG,9550 fluorescence intensity (a.u.)
7,TAAGTGAGTCGTCCCATTTCATTTCATCAGCCAATCATCACGGAGTCACCTAGTGCAG,9740 fluorescence intensity (a.u.)
8,AACCCTGTCCACGTCTGCTCGTCGCCATGGCCTCTCGTTCCGGAGTCACCTAGTGCAG,14800 fluorescence intensity (a.u.)
9,CCTGTCCATCTCGTGGCCACAGCTAAGCCGCCAATTCCCACGGAGTCACCTAGTGCAG,9510 fluorescence intensity (a.u.)
10,CCTCGTCAAGTTCTCTTATGGCAATCATACTAGATTATTTCGGAGTCACCTAGTGCAG,9280 fluorescence intensity (a.u.)
11,TGGCCGTCCATTCCCGATCAGAATCCGCTATATACCCTCTCGGAGTCACCTAGTGCAG,8030 fluorescence intensity (a.u.)
12,GGTCGTGTTCAATATTTTCTTGTAGGACATGTCATTCTCACGGAGTCACCTAGTGCAG,12900 fluorescence intensity (a.u.)
13,ATACACAGGTCTTGAGTAGCTCGAAAGCCGTGCAGCTTTTCGGAGTCACCTAGTGCAG,8340 fluorescence intensity (a.u.)
14,AAAAGTTGTGTGTGTATGAAATGTTTGATGTGATGGAAAACGGAGTCACCTAGTGCAG,8340 fluorescence intensity (a.u.)
15,TCGTTTGGTTGGCGGGAGTTTTAAGAGGGATTAGGAGTTTCGGAGTCACCTAGTGCAG,9020 fluorescence intensity (a.u.)
16,GATGAGTCCTCACCTGAGTTTCTTCCGTCCATGGCGGCCGCGGAGTCACCTAGTGCAG,10500 fluorescence intensity (a.u.)
17,ACCTGTAAACTACCGTTGGATAAAAAATAAACGTATGAGACGGAGTCACCTAGTGCAG,63600 fluorescence intensity (a.u.)
18,ATTTTGTAGGAGGTTTATAAGAAGGTCAACATCTTTTTTTCGGAGTCACCTAGTGCAG,9630 fluorescence intensity (a.u.)
19,GCCGTCCCTGCAGCCGCGCGTACGTACGCACGCCGCGATCCGGAGTCACCTAGTGCAG,8210 fluorescence intensity (a.u.)
20,CCCACCCACCCACCCACCACCACGCCACGCCACCACCTCGCGGAGTCACCTAGTGCAG,8190 fluorescence intensity (a.u.)
21,TTTCTCAAATTCAACCCTTTCTCAGTTTCTGTTTTTTTTTCGGAGTCACCTAGTGCAG,8650 fluorescence intensity (a.u.)
